Source: patent publication US6939858B2, “Malto-oligosaccharide derivatives and use thereof” (Kikkoman Corporation, priority 2000, dated 2005)
Some entries share one result that the patent states for a list of compounds.

Biological target: T1, HPA (α-amylase derived from human pancreatic juice) (Homo sapiens, UniProt P04746)
T1 construct: purchased International Reagents Corp., Japan Calibzyme·AMY
T1 sequence (P04746 16-511): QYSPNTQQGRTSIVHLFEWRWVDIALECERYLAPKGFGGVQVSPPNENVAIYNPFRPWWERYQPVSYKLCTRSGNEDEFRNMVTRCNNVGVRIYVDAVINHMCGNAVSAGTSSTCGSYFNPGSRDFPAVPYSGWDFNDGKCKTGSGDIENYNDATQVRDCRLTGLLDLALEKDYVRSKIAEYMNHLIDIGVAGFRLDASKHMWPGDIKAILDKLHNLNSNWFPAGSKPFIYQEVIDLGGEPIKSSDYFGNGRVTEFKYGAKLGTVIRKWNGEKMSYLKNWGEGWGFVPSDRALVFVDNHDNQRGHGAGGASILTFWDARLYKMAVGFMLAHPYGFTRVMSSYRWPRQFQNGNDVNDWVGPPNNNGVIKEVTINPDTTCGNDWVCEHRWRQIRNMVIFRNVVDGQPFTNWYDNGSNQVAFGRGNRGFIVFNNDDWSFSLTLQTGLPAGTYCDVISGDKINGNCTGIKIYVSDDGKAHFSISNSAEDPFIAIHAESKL
Test: Inhibition of human α-amylase activity in vitro (blue starch, Neo·Amylase Test), HPA
Assay type: biochemical
Conditions: ratio to GGDN; covers both HPA and HSA
Method: Purified water was added to commercial HPA and HSA to dissolve them to a concentration of 350 IU/1 to prepare an α-amylase solution. “Calibzyme·AMY” (produced by International Reagents Corp., Japan) was used as this commercial human α-amylase. The α-amylase activity was determined with reference to the calibration curves of a commercial α-amylase determining reagent “Neo·Amylase Test, Daiichi” (produced by Daiichi Pure Chemicals Co., Ltd., Japan).
To 100 μl of the HPA or HSA solution were added 3.0 ml of purified water, 1.0 ml of inhibitor solution and one tablet of blue starch of “Neo·Amylase Test, Daiichi” (produced by Daiichi Pure Chemicals Co., Ltd., Japan). After stirring by a mixer for about 10 seconds, the mixture was warmed at 37° C. for 30 minutes and then further stirred by adding 1.0 ml of a 0.5 N sodium hydroxide solution to cease the reaction, after which the solution was centrifuged (1,500 G, 5 min.) and absorbance of the supernatant at 620 nm was measured. As a blank, purified water was used instead of the inhibitor solution.

For `CC1OC(OC2C(CO)OC(OC3C(CO)NCC(O)C3O)C(O)C2O)C(O)C(O)C1OC1OC(CO)C(O)C(O)C1O` [GDOGGDN, O-(α-D-glucopyranosyl)-(1→4)-O-(6-deoxy-α-D-glucopyranosyl)-(1→4)-O-(α-D-glucopyranosyl)-(1→4)-deoxynojirimycin], the “inhibitory activity against HPA and HSA, times higher than GGDN (X unsubstituted, OH)” value was 5 to 9 times.
